Out of some 52,000 sequences screened, about 210 (0.4%) were called active.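 How the source made its calls: active means gene whose silencing raises cell survival under the drug, median off-target-corrected z-score across its silencing RNAs 2 or more; inactive means the rest.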 The list shows a part of the results.
Assay: Resistance to Poly (ADP-Ribose) Polymerase inhibitor: Gene Identification via Genome-wide siRNA Screen
Conditions: mouse BRCA2 R2336H ES cells, olaparib, CellTiter-Glo viability; active compounds read high
Method in brief: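 Mouse BRCA2 R2336H ES cells were reverse-transfected with siRNA (20 nM final), treated at 48 h with 500 nM olaparib, and read by CellTiter-Glo after 72 h. Scores: MAD-based z per siRNA, median per gene, seed off-target correction.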

Row | Sequence | z-score
1 | GCUGCUUUCGUGUAGAAUGTT against Snapc1 | inactive: -0.823
2 | GGCAAAUCUCAUGCAUAAUTT against Ahsg | inactive: -0.254
3 | GGUAACCGUGUUCUUAUGGTT against Fgf13 | inactive: -1.28
4 | GGUGGCCCUUAAACGGAAGTT against 4921511F01Rik | inactive: -1.62
5 | GGCUUUUGACCUCUUCGAUTT against Vav1 | inactive: 0.479
6 | GGCAUGGAAAAUUCUAGGGTT against 1700030A21Rik | inactive: -0.0465
7 | GGUACAGAAUAUGUCACAGTT against Olfm3 | inactive: 0.413
8 | GGAGGUGCUAACCUAACAGTT against Ggh | inactive: 0.22
9 | GGACAUUGCUAACUGCCUUTT against Snx16 | inactive: -1.74
10 | GGCAAGAGGUAUCAAGGUGTT against Ctsd | inactive: 2.2
11 | GCUUCAACAUGCUUUGUUUTT against A430010J10Rik | inactive: -0.207
12 | GCCACUCUGAUUCUCUAGATT against Cdc25a | inactive: -0.00977
13 | GGAUUUGGGUUAGAUCUUUTT against Cpeb3 | inactive: 0.125
14 | CCUAUCAGACUGUAAUAAGTT against Fbxl10 | inactive: 0.388
15 | GCCAAGUUCUCGAAUAUUATT against 1200006O19Rik | inactive: 0.981
16 | GGAAAGUCUGUUUUUCACUTT against Adh5 | inactive: 0.149
17 | GCUCAGUACCGCACAACCATT against AW557805 | inactive: 0.762
18 | GCGAGUAGGCAUGAUCGUUTT against A030011M19 | inactive: 2.07
19 | GGAGUGUAUGCAGAAGUUUTT against 1700030A21Rik | inactive: -0.0931
20 | GGAAGUAUCAAUACUUUCCTT against Pkdrej | inactive: 0.493
21 | CGAACUACCAGACAUGACUTT against D130064H19Rik | inactive: 0.0699
22 | GCGGCUUGCCAAGACAGUATT against Grpr | inactive: -1.22
23 | CCUUGAAAUACUGAGUGACTT against AU067695 | inactive: 1.17

A stretch from the list above, for reference:
Row | Sequence | z-score
18 | GCGAGUAGGCAUGAUCGUUTT against A030011M19 | inactive: 2.07
19 | GGAGUGUAUGCAGAAGUUUTT against 1700030A21Rik | inactive: -0.0931
20 | GGAAGUAUCAAUACUUUCCTT against Pkdrej | inactive: 0.493

Later entries:

Row | Sequence | z-score
24 | GGAGUUCUUUCUGAGGUGUTT against 2410003P15Rik | inactive: -0.204
25 | GGGCUGGCACUGGAAAUAGTT against 1110061L23Rik | inactive: -0.314
26 | CCCAGACUUAUUUCAUCACTT against Rgs12 | inactive: 0.725
27 | GCACCAGGCCAAAUGAAGUTT against Srrp | inactive: -0.514
28 | GGAGAUUGUGCUGAAGUUUTT against Tmc3 | inactive: -0.663
29 | GGAGGAUUGUUUGAACCAATT against Myrip | inactive: -1.42
30 | GGAAAAUGGAAGAAAAGCATT against Ddhd1 | inactive: -1.04
31 | GGGCUUUAGCCUGAGCGAUTT against Gpc1 | inactive: -1.16
32 | GCUGUUGUUCAAUGCCCUGTT against Olfr392 | inactive: 0.712
33 | GGUGGCUGAAGAUGUGACUTT against Ttyh1 | inactive: -0.579
34 | GGUCUUCAUGGUCAAAGUGTT against Fzd10 | inactive: 1.41
35 | GCCUGUUAUAUGUGGCCUUTT against Olfr1352 | inactive: -2.61
36 | GACCAUUAACUUGAUUUUGTT against Lsm8 | inactive: 0.533
37 | GCGACCAGCAGGUCAAAAUTT against Hoxd12 | inactive: 1.2
38 | GGAACUUAUACAAAAAAGCTT against Spata6 | inactive: -1.2
39 | CCCUGAAUUGCAACCUAUUTT against Olfr867 | inactive: 0.228
40 | CUCUUCAACGAGUGUAAAATT against Klra7 | inactive: 1.26
41 | CCUGAAAACCAUGCAAUACTT against Tas2r125 | inactive: -1.52
42 | GGAGUCUUGGCCCUUUAAUTT against Zcchc12 | inactive: -0.774
43 | CCGUUUUUUUCUUACAAUGTT against 5430431G03Rik | inactive: -0.39
44 | GCCGUGCAAAGUUUAUUCATT against Txndc3 | inactive: 0.231
45 | GAUGCCUUUUUUGUAGGCATT against Olfr539 | inactive: -1.14
46 | GGAUCCUGACUCUCCUCUUTT against Fhl3 | inactive: 0.394

Row | Sequence | z-score
47 | GGAUGUGAAUCUGCGCAAUTT against Dpep3 | inactive: 2.23
48 | CCUGCUCAUAAUUCUGUGUTT against Olfr855 | inactive: -0.699
49 | GGACAUAAGUGACAGACAUTT against Chrnb2 | active: -1.32
50 | GGUUUGUGCCUUUAUAGUGTT against Ppm1h | inactive: 0.446
51 | CCUUAUAAAAGCUACGAGGTT against Hsd3b7 | inactive: 1.34
52 | GGAGAAUGCCACAACUACATT against 425O18-1 | inactive: -0.248
53 | GCCCAAACGAAAAAUGGCCTT against Abl1 | inactive: 0.454
54 | CGAUACUGUGCAAAGAAUCTT against BC027231 | inactive: -1.68
55 | CCCAUAUCCUGUAAAAUACTT against Usp7 | inactive: 3.05
56 | GGAUGAACAGCUGUAGAAATT against 3230401I01Rik | inactive: -0.369
57 | GGACACCAAAGUGAAUACATT against Mucdhl | inactive: -0.239
58 | GGAUGAUGCCCGAAAGAACTT against Zfp536 | inactive: 0.289
59 | GGUCAUGCGGAGCAAAGAATT against Sirt5 | inactive: -0.406
60 | GGAAAGAAGCAACCACUUCTT against 4833439L19Rik | inactive: -0.302
61 | GGAUGGACUAAAUGAUGAUTT against Ythdf2 | inactive: 0.183
62 | GGACUGACAGAGUCACUUGTT against Olfr733 | inactive: -1.98
63 | GCUUGUGCGUCCUUUCUGUTT against Nmu | inactive: -0.923
64 | GCUGGAAGAUAGUGCUUUUTT against Itpr1 | inactive: 1.15
65 | GGAACUGAAAAAGUUGUUGTT against Niban | inactive: -0.191
66 | GGCUGAAUGUGAGAAUAGCTT against Map3k14 | inactive: -0.827
67 | GGCAUUGAUAAAGAUGGCATT against Grip1 | inactive: -0.4

Part of the list above, with each value named.
GCUUCAACAUGCUUUGUUUTT against A430010J10Rik
  z-score: inactive: -0.207
CCUUAUAAAAGCUACGAGGTT against Hsd3b7
  z-score: inactive: 1.34

From PubChem BioAssay AID1347423 (Functional Genomics Laboratory (NCATS/FGL), 2020)
